Assay results taken from paper doi:10.1101/617571.
Results are given in words; binding and its absence hold for the method and conditions named. In cells and extracts the contact can be indirect. A yes stands for co-enrichment or nearness to the bait. Other partners may have been found.

By UniProt entry, the sequences of proteins in these tests, tags left out.
UniProt Q8IHZ9, whole entry: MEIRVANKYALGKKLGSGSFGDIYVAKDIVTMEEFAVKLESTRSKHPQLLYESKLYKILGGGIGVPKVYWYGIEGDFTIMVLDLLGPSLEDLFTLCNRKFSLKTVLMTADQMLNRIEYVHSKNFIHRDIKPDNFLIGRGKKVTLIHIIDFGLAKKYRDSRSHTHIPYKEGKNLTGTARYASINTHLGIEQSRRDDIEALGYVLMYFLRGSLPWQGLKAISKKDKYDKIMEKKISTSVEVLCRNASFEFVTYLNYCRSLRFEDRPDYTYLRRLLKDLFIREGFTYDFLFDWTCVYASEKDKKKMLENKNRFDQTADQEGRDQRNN

B1: GTPase-activating protein and Vps9 domain-containing protein 1 (GAPVD1) (protein, UniProt Q14C86 1-1478)
chain: MVKLDIHTLAHHLKQERLYVNSEKQLIQRLNADVLKTAEKLYRTAWIAKQQRINLDRLIITSAEASPAECCQHAKILEDTQFVDGYKQLGFQETAYGEFLSRLRENPRLIASSLVAGEKLNQENTQSVIYTVFTSLYGNCIMQEDESYLLQVLRYLIEFELKESDNPRRLLRRGTCAFSILFKLFSEGLFSAKLFLTATLHEPIMQLLVEDEDHLETDPNKLIERFSPSQQEKLFGEKGSDRFRQKVQEMVESNEAKLVALVNKFIGYLKQNTYCFPHSLRWIVSQMYKTLSCVDRLEVGEVRAMCTDLLLACFICPAVVNPEQYGIISDAPINEVARFNLMQVGRLLQQLAMTGSEEGDPRTKSSLGKFDKSCVAAFLDVVIGGRAVETPPLSSVNLLEGLSRTVVYITYSQLITLVNFMKSVMSGDQLREDRMALDNLLANLPPAKPGKSSSLEMTPYNTPQLSPATTPANKKNRLPIATRSRSRTNMLMDLHMDHEGSSQETIQEVQPEEVLVISLGTGPQLTPGMMSENEVLNMQLSDGGQGDVPVDENKLHGKPDKTLRFSLCSDNLEGISEGPSNRSNSVSSLDLEGESVSELGAGPSGSNGVEALQLLEHEQATTQDNLDDKLRKFEIRDMMGLTDDRDISETVSETWSTDVLGSDFDPNIDEDRLQEIAGAAAENMLGSLLCLPGSGSVLLDPCTGSTISETTSEAWSVEVLPSDSEAPDLKQEERLQELESCSGLGSTSDDTDVREVSSRPSTPGLSVVSGISATSEDIPNKIEDLRSECSSDFGGKDSVTSPDMDEITHGAHQLTSPPSQSESLLAMFDPLSSHEGASAVVRPKVHYARPSHPPPDPPILEGAVGGNEARLPNFGSHVLTPAEMEAFKQRHSYPERLVRSRSSDIVSSVRRPMSDPSWNRRPGNEERELPPAAAIGATSLVAAPHSSSSSPSKDSSRGETEERKDSDDEKSDRNRPWWRKRFVSAMPKAPIPFRKKEKQEKDKDDLGPDRFSTLTDDPSPRLSAQAQVAEDILDKYRNAIKRTSPSDGAMANYESTGDNHDRDLSSKLLYHSDKEVMGDGESAHDSPRDEALQNISADDLPDSASQAAHPQDSAFSYRDAKKKLRLALCSADSVAFPVLTHSTRNGLPDHTDPEDNEIVCFLKVQIAEAINLQDKNLMAQLQETMRCVCRFDNRTCRKLLASIAEDYRKRAPYIAYLTRCRQGLQTTQAHLERLLQRVLRDKEVANRYFTTVCVRLLLESKEKKIREFIQDFQKLTAADDKTAQVEDFLQFLYGAMAQDVIWQNASEEQLQDAQLAIERSVMNRIFKLAFYPNQDGDILRDQVLHEHIQRLSKVVTANHRALQIPEVYLREAPWPSAQSEIRTISAYKTPRDKVQCILRMCSTIMNLLSLANEDSVPGADDFVPVLVFVLIKANPPCLLSTVQYISSFYASCLSGEESYWWMQFTAAVEFIKTIDDRK
B2: Sorting nexin 22 (SNX22) (protein, UniProt Q96L94 1-193)
chain: MLEVHIPSVGPEAEGPRQSPEKSHMVFRVEVLCSGRRHTVPRRYSEFHALHKRIKKLYKVPDFPSKRLPNWRTRGLEQRRQGLEAYIQGILYLNQEVPKELLEFLRLRHFPTDPKASNWGTLREFLPGDSSSQQHQRPVLSFHVDPYVCNPSPESLPNVVVNGVLQGLYSFSISPDKAQPKAACHPAPLPPMP

Columns and labels:
[1] = biological target: T1, GTPase-activating protein and Vps9 domain-containing protein 1 (GAPVD1) (human (endogenous in red blood cells)) (UniProt Q14C86); assay: affinity purification with mass spectrometry
T1 sequence: B1 chain

[2] = biological target: Plasmodium falciparum casein kinase 1, GFP-tagged (PfCK1-GFP) (Plasmodium falciparum (3D7)) (UniProt Q8IHZ9); assay: affinity purification with mass spectrometry

Row | Molecule | binding [1] | binding [2]
1 | P. falciparum Vacuolar protein sorting-associated protein 51 (PfVps51) | binds | 
2 | Plasmodium falciparum casein kinase 1 (PfCK1), native untagged (from UniProt Q8IHZ9 1-324) (enzyme) | binds | 
3 | B1 |  | binds
4 | B2 |  | binds
